PubChem BioAssay AID1259405 | NCATS | 2018

Purpose: 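Knock-downs that lift recombinant protein yield in hamster ovary cells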 (primary screen)
System: Chinese hamster CHO-K1 ovary cells with stable secreted eGFP expression
Reagents: single siRNA against mouse genes, 0.8 pmol siRNA per well (2 µl of 400 nM stock)
Timing: 3 days
Measurement: 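Per-well intracellular GFP measured by laser scanning cytometry, plus viability from ATP luminescence, each relative to plate median of non-targeting control wells, in %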
Direction: GFP, % of control: higher = more GFP per well, higher productivity; viability (ATP), % of control: higher = more viable cells (more ATP)
Hit rule: 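Called active when intracellular GFP, relative to negative control, is at or above 120%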
This is one part, drawn at random, of about 50,000 reagents. In the full data, about 4,000 (8%) are marked active. 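Mouse siRNA library applied to hamster cells; one well for each siRNA.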 The numbers tell different reagents against one gene apart.

no.	Target gene	reagent no.	GFP, % of control	viability (ATP), % of control	activity call
1	Echs1	1	92.6	62.7	inactive
2	Echs1	2	106	68.1	inactive
3	Echs1	3	88.3	60.4	inactive
4	Nat8f1	1	89.2	56	inactive
5	Nat8f1	2	67.7	78.3	inactive
6	Nat8f1	3	126	70.5	active
7	Pdc	1	97.2	131	inactive
8	Pdc	2	87.7	71.8	inactive
9	Smoc1	1	68.4	84.8	inactive
10	Smoc1	2	71.1	69	inactive
11	Smoc1	3	73.7	65.5	inactive
12	Fam98c	1	70.8	53.5	inactive
13	Fam98c	2	79.1	66.4	inactive
14	Fam98c	3	58	49.2	inactive
15	Trat1	1	48.4	44.3	inactive
16	Trat1	2	75.4	87.8	inactive
17	Trat1	3	73.9	88.1	inactive
18	Fam24a	1	8.25	73.8	inactive
19	Fam24a	2	120	77.9	active
20	Fam24a	3	59.3	74.3	inactive
21	Dhx9	1	161	85.8	active
22	Dhx9	2	102	116	inactive
23	Dhx9	3	94.9	92.1	inactive
24	Rabac1	1	81.6	80.8	inactive
25	Rabac1	2	86	79	inactive
26	Rabac1	3	120	57.4	inactive
27	Mdm2	1	110	57.6	inactive
28	Mdm2	2	68.6	66.8	inactive
29	Mdm2	3	57.2	85.9	inactive
30	Traf6	1	99.6	105	inactive
31	Traf6	2	106	89	inactive
32	Traf6	3	92.3	67.4	inactive
33	Ikbkg	1	93.6	91.1	inactive
34	Ikbkg	2	88.6	88.2	inactive
35	Nxn	1	90.8	97.7	inactive
36	Nxn	2	126	90.6	active
37	Nxn	3	94.2	86.6	inactive
38	Mcm5	1	58.3	84.5	inactive
39	Mcm5	2	82.3	69.2	inactive
40	Mcm5	3	69.2	105	inactive
41	Oaz2	1	91	63.2	inactive
42	Oaz2	2	92.6	77.9	inactive
43	Ppp1r15b	1	87.6	143	inactive
44	Ppp1r15b	2	94.8	68.7	inactive
45	Opn5	1	54.1	27.7	inactive
46	Opn5	2	58.8	77.8	inactive
47	Opn5	3	85.5	65.9	inactive
48	Spp2	1	76.8	60.5	inactive
49	Spp2	2	84.5	44.1	inactive
50	Spp2	3	87.1	105	inactive
51	Mrpl32	1	96	79.6	inactive
52	Mrpl32	2	64.8	59.3	inactive
53	Mrpl32	3	64.3	59.8	inactive
54	Sash1	1	87.3	80	inactive
55	Sash1	2	106	81.5	inactive
56	Sash1	3	85.2	81.6	inactive
57	Pop5	1	53.5	42.9	inactive
58	Pop5	2	106	65.6	inactive
59	Pop5	3	63.4	52.1	inactive
60	Or6c3b	1	15.3	22.2	inactive
61	Or6c3b	2	80.3	63	inactive
62	Or6c3b	3	71.3	91.6	inactive
63	Cd177	1	135	105	active
64	Cd177	2	119	101	inactive
65	Cd177	3	82.7	65	inactive
66	Or9g20	1	129	67.5	active
67	Or9g20	2	70.8	68.8	inactive
68	Or9g20	3	67.7	75.6	inactive
69	Zfp710	1	69.3	69.5	inactive
70	Zfp710	2	128	101	active
71	Cfap69	1	127	88.8	active
72	Cfap69	2	95.7	71.4	inactive
73	Cfap69	3	77.1	72.7	inactive
74	Cilk1	1	145	113	active
75	Cilk1	2	90.2	87.4	inactive
76	Cilk1	3	97.2	74.8	inactive
77	Ogn	1	131	70.5	active
78	Ogn	2	93.7	86.7	inactive
79	Ogn	3	61.3	66.5	inactive
80	Tor3a	1	75	67.4	inactive
81	Tor3a	2	54.7	75.9	inactive
82	Tor3a	3	93.6	75.4	inactive
83	Ulk4	1	61.1	84.1	inactive
84	Ulk4	2	35.6	31.9	inactive
85	Ulk4	3	71.5	101	inactive

Single entries from above.
Value for Mrpl32 #2 under “GFP, % of control”: 64.8
Entry of Tor3a #2 under “GFP, % of control”: 54.7
Under “activity call”, Ikbkg #2 reads inactive
Result of Mrpl32 #3 in “viability (ATP), % of control”: 59.8
Under “activity call”, Oaz2 #2 is entered as inactive
Result of Trat1 #2 under “GFP, % of control”: 75.4
